These are yes or no findings as the source states them, for the method shown. Binding seen in cells or lysates may run through a third protein. Some entries that bind do so weakly or less than the wild type.
Assays:
Assay in all cases: co-IP
[1] = molecular target: GFP-tagged chromatin remodeler ATPase subunit INO80 (human) (UniProt Q9ULG1)
[2] = molecular target: GFP-tagged chromatin remodeler ATPase subunit SNF2h (UniProt O60264)
[3] = molecular target: Strep-tagged BZLF1 full-length protein (aa1-245) (Epstein-Barr virus) (UniProt P03206)
[4] = molecular target: Strep-tagged BZLF1 bZIP domain (aa175-236) (Epstein-Barr virus) (UniProt P03206)

Sequences of proteins named here, by UniProt entry; tags and fusion partners are left off. A change or cut given only in a name is not applied to a line headed by its entry. A line that says so, or that is headed by a name, gives the form on record, which may keep a tag or linker. Residues count along the entry.
UniProt Q9ULG1: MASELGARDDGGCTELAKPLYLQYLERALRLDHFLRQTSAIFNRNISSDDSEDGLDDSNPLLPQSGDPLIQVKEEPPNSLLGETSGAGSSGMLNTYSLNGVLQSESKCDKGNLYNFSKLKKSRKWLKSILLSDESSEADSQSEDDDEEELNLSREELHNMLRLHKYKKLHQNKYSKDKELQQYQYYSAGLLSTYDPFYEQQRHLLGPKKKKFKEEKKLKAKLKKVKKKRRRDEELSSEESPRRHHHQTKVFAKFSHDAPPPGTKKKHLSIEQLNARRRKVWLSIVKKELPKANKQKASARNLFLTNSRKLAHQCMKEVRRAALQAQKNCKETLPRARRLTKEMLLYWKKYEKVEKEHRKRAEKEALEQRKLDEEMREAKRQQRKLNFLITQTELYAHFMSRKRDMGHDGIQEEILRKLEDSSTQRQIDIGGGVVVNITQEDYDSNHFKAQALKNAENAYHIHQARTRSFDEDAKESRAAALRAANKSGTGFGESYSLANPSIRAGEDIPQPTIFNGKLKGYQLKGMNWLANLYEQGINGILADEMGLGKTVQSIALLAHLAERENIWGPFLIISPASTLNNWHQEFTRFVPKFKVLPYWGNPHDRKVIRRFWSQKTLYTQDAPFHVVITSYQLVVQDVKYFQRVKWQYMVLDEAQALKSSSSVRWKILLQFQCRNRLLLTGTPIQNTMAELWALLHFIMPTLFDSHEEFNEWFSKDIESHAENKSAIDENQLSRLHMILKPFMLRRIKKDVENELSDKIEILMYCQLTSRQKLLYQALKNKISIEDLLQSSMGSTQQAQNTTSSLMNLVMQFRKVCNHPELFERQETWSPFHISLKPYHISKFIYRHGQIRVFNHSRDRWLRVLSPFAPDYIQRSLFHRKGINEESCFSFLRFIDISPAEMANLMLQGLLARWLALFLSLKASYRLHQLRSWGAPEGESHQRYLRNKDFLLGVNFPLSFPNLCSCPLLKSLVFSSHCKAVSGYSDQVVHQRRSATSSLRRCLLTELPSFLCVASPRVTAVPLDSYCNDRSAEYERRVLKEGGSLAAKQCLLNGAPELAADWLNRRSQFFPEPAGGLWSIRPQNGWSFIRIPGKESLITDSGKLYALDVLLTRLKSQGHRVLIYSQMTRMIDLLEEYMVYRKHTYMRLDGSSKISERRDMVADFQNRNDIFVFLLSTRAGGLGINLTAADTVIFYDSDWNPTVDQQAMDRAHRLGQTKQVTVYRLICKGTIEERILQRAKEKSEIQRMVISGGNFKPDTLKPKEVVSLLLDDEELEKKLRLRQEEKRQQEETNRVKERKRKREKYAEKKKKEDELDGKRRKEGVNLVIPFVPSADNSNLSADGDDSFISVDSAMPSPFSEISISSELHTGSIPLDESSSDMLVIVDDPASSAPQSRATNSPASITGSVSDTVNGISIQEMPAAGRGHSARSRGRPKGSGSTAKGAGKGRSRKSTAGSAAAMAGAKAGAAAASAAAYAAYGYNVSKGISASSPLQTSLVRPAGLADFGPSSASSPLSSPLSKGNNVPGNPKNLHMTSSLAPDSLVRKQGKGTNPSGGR
UniProt O60264: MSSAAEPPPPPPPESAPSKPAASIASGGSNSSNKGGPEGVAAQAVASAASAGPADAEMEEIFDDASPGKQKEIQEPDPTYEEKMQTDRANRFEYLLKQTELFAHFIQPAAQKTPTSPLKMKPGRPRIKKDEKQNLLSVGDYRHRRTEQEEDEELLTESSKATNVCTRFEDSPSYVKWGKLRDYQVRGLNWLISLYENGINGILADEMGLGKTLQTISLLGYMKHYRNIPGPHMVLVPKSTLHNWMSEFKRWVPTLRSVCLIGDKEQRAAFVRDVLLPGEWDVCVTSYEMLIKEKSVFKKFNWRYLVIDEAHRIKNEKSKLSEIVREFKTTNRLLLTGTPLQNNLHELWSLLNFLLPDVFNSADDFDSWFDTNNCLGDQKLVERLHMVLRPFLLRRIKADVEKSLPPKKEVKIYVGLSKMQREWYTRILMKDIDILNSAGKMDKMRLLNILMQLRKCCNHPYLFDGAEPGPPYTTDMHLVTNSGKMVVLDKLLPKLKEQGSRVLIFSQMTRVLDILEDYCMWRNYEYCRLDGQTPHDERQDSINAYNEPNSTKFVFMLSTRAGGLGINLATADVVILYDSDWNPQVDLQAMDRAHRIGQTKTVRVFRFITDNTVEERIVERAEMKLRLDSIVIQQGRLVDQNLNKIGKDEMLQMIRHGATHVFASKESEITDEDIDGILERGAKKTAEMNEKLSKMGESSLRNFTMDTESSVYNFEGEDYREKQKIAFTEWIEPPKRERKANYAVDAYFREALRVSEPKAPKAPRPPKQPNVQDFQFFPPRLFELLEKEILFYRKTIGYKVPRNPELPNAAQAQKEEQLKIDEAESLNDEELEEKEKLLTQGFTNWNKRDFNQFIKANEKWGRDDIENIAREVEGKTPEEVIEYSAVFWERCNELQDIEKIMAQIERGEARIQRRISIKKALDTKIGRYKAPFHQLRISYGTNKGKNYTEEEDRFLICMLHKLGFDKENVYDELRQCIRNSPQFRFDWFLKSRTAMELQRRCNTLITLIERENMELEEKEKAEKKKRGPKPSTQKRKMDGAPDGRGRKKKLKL
UniProt P03206: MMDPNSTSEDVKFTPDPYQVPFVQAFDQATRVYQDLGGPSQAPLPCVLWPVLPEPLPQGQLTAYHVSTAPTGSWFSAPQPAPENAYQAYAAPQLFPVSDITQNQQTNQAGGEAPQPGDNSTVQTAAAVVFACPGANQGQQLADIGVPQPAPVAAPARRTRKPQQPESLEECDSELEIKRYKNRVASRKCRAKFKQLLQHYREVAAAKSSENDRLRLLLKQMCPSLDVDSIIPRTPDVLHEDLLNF
Strep-tagged BZLF1 bZIP domain (aa175-236): residues 175-236 of P03206
UniProt Q14839: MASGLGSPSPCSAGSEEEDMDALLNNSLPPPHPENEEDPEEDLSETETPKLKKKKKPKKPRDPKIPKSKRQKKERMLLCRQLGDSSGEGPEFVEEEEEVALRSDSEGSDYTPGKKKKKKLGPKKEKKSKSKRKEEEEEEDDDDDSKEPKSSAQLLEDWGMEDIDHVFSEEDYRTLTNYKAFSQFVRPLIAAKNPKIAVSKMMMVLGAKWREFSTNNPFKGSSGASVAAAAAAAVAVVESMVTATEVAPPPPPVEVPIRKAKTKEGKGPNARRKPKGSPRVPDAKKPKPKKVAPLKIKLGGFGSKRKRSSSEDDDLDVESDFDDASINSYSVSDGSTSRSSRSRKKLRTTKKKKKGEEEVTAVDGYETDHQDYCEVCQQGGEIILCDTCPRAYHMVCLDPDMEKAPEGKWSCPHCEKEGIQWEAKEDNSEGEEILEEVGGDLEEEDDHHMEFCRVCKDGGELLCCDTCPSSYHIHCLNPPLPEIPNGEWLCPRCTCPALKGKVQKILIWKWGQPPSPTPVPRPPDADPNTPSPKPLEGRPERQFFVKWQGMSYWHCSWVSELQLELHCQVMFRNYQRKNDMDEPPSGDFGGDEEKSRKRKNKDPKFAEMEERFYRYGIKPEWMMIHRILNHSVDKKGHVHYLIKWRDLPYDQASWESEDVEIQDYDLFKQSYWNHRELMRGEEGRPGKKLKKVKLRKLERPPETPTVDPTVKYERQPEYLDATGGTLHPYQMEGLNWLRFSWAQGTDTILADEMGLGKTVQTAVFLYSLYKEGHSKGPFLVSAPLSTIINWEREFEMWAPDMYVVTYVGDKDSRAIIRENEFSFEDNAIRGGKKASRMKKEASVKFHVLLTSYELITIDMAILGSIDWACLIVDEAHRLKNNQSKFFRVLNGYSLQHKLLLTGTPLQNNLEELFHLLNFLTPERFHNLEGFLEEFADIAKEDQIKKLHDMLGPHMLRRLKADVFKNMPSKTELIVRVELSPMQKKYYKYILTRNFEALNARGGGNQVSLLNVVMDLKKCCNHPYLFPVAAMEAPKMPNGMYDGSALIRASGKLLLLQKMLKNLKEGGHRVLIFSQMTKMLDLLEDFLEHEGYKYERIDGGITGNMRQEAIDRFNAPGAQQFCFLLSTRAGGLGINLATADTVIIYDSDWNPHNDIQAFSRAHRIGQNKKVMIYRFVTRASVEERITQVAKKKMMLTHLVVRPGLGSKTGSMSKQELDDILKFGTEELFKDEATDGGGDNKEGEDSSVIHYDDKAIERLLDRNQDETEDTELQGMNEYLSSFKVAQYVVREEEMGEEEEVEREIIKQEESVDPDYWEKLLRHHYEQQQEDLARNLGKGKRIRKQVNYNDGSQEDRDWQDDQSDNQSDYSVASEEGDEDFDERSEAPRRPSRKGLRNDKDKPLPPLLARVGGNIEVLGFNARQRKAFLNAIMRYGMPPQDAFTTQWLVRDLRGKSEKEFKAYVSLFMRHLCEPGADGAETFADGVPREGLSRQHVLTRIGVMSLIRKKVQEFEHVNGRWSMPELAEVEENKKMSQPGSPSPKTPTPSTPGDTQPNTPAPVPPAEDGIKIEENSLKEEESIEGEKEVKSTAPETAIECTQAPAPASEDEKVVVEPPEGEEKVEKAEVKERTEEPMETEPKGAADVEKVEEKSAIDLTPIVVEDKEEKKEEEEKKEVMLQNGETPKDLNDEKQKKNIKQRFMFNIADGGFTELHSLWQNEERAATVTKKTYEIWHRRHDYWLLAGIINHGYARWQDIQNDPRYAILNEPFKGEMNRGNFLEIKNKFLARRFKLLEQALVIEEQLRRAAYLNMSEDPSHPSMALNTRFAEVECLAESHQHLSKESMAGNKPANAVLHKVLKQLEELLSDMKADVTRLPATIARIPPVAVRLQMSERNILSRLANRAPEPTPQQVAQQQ

Substance	binding [2]	binding [3]	further results
BZLF1 aa1-245 with FLAG- and tandem Strep-tag (HEK293) (from UniProt P03206 1-245)	binds	–	binding [1]: binds
BZLF1 aa175-236 with FLAG- and tandem Strep-tag (HEK293) (from UniProt P03206 175-236) (domain or fragment)	binds	–	–
CHD4 (endogenous, Raji) (from UniProt Q14839 1-1912)	–	no binding	–
SNF2h, catalytic ATPase subunit of ISWI family remodelers (endogenous, Raji) (from UniProt O60264 1-1052)	–	binds	binding [4]: binds
BZLF1 aa149-245 with FLAG- and tandem Strep-tag (HEK293) (from UniProt P03206 149-245) (domain or fragment)	binds	–	–
BZLF1 aa1-236 with FLAG- and tandem Strep-tag (HEK293) (from UniProt P03206 1-236) (domain or fragment)	binds	–	–

From article doi:10.1101/317354
